Experimental data from US20210277097A1.
Results are given in words; binding and its absence hold for the method and conditions named. Some entries that bind do so weakly or less than the wild type.

Legend:
[1] = target: recombinant rat RGM A (rat); assay: direct ELISA on rRatRGMA
[2] = target: recombinant rat RGM A (rat); assay: ELISA on rat RGM A (data not shown)

- binding [1]: binds
- binding [2]: binds
B1: rat anti-human RGM A monoclonal antibody 5F9 (antibody, V domains shown)
VH: EVQLVESGGGLVQPGSSLKLSCVASGFTFSNYGMNWIRQAPKKGLEWIGMIYYDSSEKHYADSVKGRFTISRDNSKNTLYLEMNSLRSEDTAIYYCAKGTTPDYWGQGVMVTVSS
VL: DVVLTQTPVSLSVTLGDQASMSCRSSQSLEYSDGYTFLEWFLQKPGQSPQLLIYEVSNRFSGVPDRFIGSGSGTDFTLKISRVEPEDLGVYYCFQATHDPLTFGSGTKLEIKR
